Laboratory results reported in the supplement of paper PMC6411743.
± gives the standard deviation of the averaged measurements. The entries are a selection whose mix differs from that of the whole data set.

Chains of the proteins cited; added tags and fusions are not shown. Lines headed by an entry give the natural chain unless they say otherwise; changes in a name come on top.
UniProt Q9UGJ1, whole entry: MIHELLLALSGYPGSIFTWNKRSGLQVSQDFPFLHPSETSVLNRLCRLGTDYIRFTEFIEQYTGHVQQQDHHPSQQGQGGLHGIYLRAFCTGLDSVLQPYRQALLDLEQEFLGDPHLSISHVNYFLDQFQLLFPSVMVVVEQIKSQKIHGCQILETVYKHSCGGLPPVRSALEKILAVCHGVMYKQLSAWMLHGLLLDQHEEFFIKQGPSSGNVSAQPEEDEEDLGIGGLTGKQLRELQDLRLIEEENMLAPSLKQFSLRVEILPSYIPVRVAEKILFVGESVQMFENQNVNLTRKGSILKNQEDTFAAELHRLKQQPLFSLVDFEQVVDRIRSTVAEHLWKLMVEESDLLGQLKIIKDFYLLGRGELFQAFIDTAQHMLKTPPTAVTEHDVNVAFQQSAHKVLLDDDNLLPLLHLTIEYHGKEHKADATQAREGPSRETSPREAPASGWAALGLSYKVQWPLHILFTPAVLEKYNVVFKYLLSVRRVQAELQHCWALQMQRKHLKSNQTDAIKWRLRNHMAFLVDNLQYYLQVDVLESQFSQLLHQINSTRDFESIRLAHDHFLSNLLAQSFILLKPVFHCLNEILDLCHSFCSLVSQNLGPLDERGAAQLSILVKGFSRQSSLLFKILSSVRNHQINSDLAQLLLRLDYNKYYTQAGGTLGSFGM
UniProt Q9Y5B0: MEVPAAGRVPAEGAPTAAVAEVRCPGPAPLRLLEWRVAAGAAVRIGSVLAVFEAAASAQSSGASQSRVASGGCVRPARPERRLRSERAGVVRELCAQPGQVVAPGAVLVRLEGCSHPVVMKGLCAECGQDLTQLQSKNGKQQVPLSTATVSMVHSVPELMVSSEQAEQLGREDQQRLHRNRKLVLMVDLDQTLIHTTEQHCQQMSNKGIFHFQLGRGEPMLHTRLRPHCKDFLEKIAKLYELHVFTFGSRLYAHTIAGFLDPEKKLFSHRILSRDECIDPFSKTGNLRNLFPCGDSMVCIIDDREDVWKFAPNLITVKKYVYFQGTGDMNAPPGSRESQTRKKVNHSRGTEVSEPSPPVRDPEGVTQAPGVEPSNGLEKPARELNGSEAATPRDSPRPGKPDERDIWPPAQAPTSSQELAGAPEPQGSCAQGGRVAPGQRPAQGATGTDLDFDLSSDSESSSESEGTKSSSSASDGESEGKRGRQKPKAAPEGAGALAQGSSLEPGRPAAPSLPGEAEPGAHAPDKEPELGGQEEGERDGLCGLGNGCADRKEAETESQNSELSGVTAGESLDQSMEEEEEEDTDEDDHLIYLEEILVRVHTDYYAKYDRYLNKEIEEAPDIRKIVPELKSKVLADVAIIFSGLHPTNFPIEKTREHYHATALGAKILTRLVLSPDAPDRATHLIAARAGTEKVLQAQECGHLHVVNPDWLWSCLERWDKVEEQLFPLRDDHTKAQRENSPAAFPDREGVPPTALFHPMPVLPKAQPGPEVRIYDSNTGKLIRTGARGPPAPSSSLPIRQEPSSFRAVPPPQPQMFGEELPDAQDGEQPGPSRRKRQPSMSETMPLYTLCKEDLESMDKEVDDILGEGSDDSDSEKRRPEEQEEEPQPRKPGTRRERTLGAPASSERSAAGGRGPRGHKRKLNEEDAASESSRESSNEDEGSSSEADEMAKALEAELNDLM
UniProt Q8NBZ0, whole entry: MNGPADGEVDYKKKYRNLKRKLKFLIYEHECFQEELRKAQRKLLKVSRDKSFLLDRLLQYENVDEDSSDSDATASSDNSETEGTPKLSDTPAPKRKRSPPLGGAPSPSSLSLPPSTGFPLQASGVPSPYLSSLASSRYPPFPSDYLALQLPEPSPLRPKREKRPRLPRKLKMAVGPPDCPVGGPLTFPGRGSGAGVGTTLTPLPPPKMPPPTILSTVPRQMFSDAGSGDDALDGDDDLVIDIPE
UniProt Q8WVC6: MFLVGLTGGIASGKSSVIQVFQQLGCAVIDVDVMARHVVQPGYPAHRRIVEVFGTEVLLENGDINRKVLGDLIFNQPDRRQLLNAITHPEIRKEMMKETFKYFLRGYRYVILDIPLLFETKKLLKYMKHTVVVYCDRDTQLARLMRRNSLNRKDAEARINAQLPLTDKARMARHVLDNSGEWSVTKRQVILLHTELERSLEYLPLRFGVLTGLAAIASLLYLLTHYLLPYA
UniProt Q92879: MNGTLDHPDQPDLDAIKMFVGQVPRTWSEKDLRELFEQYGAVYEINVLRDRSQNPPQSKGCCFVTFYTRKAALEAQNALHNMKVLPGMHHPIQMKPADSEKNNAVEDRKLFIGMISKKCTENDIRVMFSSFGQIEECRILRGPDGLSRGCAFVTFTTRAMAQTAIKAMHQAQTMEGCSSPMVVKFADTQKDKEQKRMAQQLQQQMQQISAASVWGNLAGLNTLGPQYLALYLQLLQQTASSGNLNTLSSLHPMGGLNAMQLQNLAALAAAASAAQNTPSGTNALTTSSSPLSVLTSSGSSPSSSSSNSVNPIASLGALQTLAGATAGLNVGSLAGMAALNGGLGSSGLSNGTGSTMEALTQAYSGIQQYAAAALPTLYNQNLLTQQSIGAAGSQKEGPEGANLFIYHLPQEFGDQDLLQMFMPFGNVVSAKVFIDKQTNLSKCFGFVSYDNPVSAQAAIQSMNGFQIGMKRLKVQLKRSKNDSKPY
UniProt Q5T3F8: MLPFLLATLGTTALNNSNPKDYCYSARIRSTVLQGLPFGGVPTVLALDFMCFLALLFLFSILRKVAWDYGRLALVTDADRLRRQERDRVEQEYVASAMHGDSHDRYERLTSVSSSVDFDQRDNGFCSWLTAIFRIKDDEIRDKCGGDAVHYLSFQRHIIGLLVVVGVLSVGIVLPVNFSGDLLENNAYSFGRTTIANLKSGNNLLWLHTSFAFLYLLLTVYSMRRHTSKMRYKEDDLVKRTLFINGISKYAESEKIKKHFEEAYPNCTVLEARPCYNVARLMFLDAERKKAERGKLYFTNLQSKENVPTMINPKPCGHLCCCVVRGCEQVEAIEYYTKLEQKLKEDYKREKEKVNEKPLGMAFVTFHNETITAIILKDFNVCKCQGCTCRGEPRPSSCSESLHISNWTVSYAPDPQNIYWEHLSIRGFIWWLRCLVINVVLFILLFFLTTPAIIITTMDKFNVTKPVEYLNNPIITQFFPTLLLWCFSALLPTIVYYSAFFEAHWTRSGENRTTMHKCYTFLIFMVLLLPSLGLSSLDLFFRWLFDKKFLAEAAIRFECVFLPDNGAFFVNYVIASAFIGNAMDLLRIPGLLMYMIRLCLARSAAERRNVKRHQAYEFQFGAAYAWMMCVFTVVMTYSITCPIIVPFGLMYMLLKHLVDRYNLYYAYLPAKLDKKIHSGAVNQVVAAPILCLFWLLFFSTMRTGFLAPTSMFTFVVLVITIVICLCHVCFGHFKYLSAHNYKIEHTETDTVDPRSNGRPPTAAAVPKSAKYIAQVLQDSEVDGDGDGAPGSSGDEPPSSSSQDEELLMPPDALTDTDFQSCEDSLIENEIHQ
UniProt Q15438: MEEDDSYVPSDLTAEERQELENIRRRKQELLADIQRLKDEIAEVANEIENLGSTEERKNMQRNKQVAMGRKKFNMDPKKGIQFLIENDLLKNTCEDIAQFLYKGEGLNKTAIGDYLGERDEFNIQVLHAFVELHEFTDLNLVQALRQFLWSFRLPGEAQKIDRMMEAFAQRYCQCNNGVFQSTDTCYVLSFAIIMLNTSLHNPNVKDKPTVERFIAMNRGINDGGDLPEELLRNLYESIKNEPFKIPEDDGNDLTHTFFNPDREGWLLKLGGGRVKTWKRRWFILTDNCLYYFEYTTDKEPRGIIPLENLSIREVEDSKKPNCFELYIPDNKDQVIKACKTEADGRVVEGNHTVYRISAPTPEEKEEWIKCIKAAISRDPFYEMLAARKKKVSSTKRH
UniProt Q9UPW5: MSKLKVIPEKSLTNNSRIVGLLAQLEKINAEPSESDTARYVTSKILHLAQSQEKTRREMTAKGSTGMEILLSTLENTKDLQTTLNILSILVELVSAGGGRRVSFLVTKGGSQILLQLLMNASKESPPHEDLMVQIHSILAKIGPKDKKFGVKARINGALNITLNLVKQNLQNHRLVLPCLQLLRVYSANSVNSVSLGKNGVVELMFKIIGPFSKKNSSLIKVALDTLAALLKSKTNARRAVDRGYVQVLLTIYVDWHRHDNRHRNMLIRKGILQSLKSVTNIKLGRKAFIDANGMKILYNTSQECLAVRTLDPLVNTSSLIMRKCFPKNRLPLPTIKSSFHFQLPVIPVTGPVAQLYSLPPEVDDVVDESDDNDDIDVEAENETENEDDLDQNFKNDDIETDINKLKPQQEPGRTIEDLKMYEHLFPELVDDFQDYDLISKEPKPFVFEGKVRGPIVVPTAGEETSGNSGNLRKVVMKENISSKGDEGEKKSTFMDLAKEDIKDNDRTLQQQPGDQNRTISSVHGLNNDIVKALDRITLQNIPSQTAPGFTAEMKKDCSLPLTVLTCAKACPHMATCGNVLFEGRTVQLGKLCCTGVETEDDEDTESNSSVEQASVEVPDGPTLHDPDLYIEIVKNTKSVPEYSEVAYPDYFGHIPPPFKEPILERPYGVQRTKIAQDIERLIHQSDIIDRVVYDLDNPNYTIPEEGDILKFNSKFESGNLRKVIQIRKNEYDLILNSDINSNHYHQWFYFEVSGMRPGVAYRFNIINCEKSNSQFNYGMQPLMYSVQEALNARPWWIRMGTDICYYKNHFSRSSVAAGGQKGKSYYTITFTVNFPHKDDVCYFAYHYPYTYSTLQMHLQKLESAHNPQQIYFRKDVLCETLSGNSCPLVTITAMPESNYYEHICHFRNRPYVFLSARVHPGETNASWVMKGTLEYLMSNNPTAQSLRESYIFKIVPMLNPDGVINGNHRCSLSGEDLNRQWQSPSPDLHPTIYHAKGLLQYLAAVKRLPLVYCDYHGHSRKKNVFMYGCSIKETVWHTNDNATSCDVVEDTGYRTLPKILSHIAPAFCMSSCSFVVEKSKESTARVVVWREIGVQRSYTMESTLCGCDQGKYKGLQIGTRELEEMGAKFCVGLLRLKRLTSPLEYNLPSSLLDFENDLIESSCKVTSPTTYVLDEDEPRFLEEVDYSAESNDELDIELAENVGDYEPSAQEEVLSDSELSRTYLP
UniProt Q9Y3B8: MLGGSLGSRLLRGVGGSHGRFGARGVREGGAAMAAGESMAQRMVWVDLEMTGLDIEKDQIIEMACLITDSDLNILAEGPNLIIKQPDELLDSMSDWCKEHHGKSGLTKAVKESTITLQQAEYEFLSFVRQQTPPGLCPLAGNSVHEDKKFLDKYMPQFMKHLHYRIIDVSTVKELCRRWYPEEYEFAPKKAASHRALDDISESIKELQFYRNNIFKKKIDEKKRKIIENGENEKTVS
UniProt Q9BUR5: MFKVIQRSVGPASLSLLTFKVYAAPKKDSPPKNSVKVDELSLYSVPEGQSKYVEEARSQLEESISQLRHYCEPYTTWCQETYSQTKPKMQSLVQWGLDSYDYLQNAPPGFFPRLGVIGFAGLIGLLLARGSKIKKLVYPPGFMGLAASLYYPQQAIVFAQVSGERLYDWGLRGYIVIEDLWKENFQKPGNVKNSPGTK
UniProt Q9P246, whole entry: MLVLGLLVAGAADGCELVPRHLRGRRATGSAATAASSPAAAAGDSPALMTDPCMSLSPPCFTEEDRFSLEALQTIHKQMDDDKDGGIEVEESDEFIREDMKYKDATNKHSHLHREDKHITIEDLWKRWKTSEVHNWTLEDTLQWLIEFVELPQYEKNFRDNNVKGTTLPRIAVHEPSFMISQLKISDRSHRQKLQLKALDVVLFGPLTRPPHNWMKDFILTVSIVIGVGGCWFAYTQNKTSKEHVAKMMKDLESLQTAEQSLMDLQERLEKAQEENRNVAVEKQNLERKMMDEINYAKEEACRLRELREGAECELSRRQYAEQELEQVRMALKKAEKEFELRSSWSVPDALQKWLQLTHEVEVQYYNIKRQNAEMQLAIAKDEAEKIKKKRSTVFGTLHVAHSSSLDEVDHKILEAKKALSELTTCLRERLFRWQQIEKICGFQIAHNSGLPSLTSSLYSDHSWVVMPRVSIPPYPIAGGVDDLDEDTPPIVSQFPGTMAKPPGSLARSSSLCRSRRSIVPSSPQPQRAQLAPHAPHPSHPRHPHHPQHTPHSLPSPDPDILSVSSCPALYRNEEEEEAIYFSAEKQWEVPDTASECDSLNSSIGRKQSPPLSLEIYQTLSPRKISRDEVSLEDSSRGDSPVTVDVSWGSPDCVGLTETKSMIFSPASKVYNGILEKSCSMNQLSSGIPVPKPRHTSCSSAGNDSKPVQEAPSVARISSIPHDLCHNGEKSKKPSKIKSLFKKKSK
UniProt Q9BQE5: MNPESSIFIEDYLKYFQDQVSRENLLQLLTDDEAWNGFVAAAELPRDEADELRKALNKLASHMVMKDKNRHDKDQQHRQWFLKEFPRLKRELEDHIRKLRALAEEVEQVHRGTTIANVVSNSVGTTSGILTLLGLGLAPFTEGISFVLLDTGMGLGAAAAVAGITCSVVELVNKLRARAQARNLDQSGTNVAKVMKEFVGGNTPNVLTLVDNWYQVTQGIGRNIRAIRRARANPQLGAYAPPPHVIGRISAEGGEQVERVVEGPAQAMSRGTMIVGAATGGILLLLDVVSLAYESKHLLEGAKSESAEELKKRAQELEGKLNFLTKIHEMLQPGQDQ

Compound: Nc1ncnc2c1ncn2[C@@H]1O[C@H](COP(=O)(O)OP(=O)(O)OP(=O)(O)O)[C@@H](O)[C@H]1O [adenosine triphosphate]
Assay: NP40-soluble protein abundance relative to vehicle (solubility fold change) (ratio); higher = more soluble protein in presence of ATP
Method in brief: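 Eight concentrations, 0.1 to 10 mM, were tested on Jurkat crude lysate for 10 min at room temperature and then 3 min at 37 °C, in three independent experiments. The lysate was solubilised with 0.8% NP40 and benzonase, ultracentrifuged, and the supernatant TMT-labelled for LC-MS/MS. Each value is the fold change against the detergent-processed vehicle in its own replicate, from vsn-normalised intensities.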

Target | NP40-soluble protein abundance (concentration: 1mM) | NP40-soluble protein abundance (concentration: 2mM) | NP40-soluble protein abundance (concentration: 4mM) | NP40-soluble protein abundance (concentration: 6mM) | NP40-soluble protein abundance (concentration: 8mM) | NP40-soluble protein abundance (concentration: 10mM)
H3BPU4 and related entries (UniProt Q9UGJ1) | 1.12 ± 0.092 | 1.12 ± 0.072 | 1.1 ± 0.073 | 1.08 ± 0.1 | 1.13 ± 0.096 | 1.18 ± 0.13
K7EJD2 and related entries (UniProt Q9Y5B0) | 1 ± 0.033 | 0.977 ± 0.023 | 0.971 ± 0.058 | 0.994 ± 0.048 | 0.957 ± 0.04 | 0.992 ± 0.035
H3BNM4 and related entries (UniProt Q8NBZ0) | 1.22 ± 0.14 | 1.3 ± 0.12 | 1.23 ± 0.13 | 1.26 ± 0.16 | 1.29 ± 0.056 | 1.06 ± 0.33
K7ESP4 and related entries (UniProt Q8WVC6) | 1.24 ± 0.12 | 1.26 ± 0.055 | 1.24 ± 0.059 | 1.25 ± 0.15 | 1.24 ± 0.026 | 1.23 ± 0.077
G5EA30 and related entries (UniProt Q92879) | 0.945 ± 0.015 | 0.996 ± 0.058 | 0.9471 ± 0.0078 | 0.969 ± 0.014 | 0.923 ± 0.022 | 0.96 ± 0.021
H0YCP6 and related entries (UniProt Q5T3F8) | 0.966 ± 0.048 | 1.02 ± 0.073 | 0.962 ± 0.055 | 0.909 ± 0.075 | 0.928 ± 0.035 | 0.989 ± 0.085
K7ENQ8 and related entries (UniProt Q15438) | 1.017 ± 0.0027 | 0.987 ± 0.021 | 1.02 ± 0.053 | 0.981 ± 0.016 | 0.987 ± 0.026 | 0.969 ± 0.025
J3KNS1 and related entries (UniProt Q9UPW5) | 1.03 ± 0.034 | 1.04 ± 0.018 | 1.09 ± 0.011 | 1.09 ± 0.047 | 1.073 ± 0.0088 | 1.11 ± 0.048
H0Y5M1 and related entries (UniProt P04844) | 1.05 ± 0.11 | 1.01 ± 0.088 | 0.977 ± 0.077 | 0.978 ± 0.098 | 0.996 ± 0.068 | 0.982 ± 0.054
H1UBN3 and related entries (UniProt O95067+H1UBN3) | 0.974 ± 0.059 | 1.01 ± 0.11 | 0.986 ± 0.12 | 1.04 ± 0.035 | 1.09 ± 0.014 | 1.09 ± 0.032
H0YGR4 and related entries (UniProt Q9Y3B8) | 0.982 ± 0.042 | 0.957 ± 0.063 | 0.935 ± 0.053 | 0.94 ± 0.036 | 0.918 ± 0.1 | 0.898 ± 0.087
H0Y9Z5 and related entries (UniProt Q96LI5) | 1.2194 ± 0.00086 | 1.2 ± 0.023 | 1.27 ± 0.15 | 1.14 ± 0.14 | 1.3 ± 0.066 | 1.3 ± 0.13
H7C1U8 and related entries (UniProt Q9BUR5) | 0.934 ± 0.032 | 0.944 ± 0.017 | 0.92 ± 0.018 | 0.93 ± 0.028 | 0.908 ± 0.013 | 0.877 ± 0.046
H0Y860 and related entries (UniProt Q9P246) | 1.04 ± 0.067 | 1.05 ± 0.051 | 1.06 ± 0.093 | 1.09 ± 0.13 | 0.991 ± 0.08 | 1.03 ± 0.069
J3KQL8 (UniProt Q9BQE5) | 0.966 ± 0.027 | 0.973 ± 0.02 | 0.959 ± 0.035 | 0.977 ± 0.014 | 0.942 ± 0.029 | 0.941 ± 0.028

Some values from the entries so far.
K7EJD2 and related entries (UniProt Q9Y5B0) | NP40-soluble protein abundance (concentration: 4mM): 0.971 ± 0.058
J3KQL8 (UniProt Q9BQE5) | NP40-soluble protein abundance (concentration: 4mM): 0.959 ± 0.035
